Results published in doi:10.1101/2025.09.18.676998.
These are yes or no findings as the source states them, for the method shown. In cells and extracts the contact can be indirect. Here binding means that the protein was enriched with, or labelled near, the bait; the list need not be complete.

Target: Synaptotagmin-binding cytoplasmic RNA-interacting protein (Syncrip) (zebrafish (endogenous in eggs))
Experiment: affinity purification with mass spectrometry

- binding: binds
B1: Igf2bp3 (protein, UniProt Q9PW80 1-582)
chain: MNKLYIGNVSEQASALDLESIFEQWKIPFSAPFLVKSGYAFVDCPDEKVAMRAIDTLSGKVELHGKVLEVEHSVPKRQRSCKLQIRNIPPHMQWEVLDGLLAQYGTVESCEQVNTDTETAVVNVRYGAKDQAREAMDKLNGFLMENYALKVSYIPDETAAADAPAVGGRRGFNPRGPPRQGSPSLGARPKLQSDVPLRLLVPTQFVGAIIGKEGATIRNITKQTHSKIDIHRKENAGAAEKPITVHSTPEGCSSACRNIMEIMQKEAIDTKITEEIPLKILAHNNFVGRLIGKEGRNLKKIEQDTDTKITISPLQDLTLYNPERTITVKGTLDACAKAEEEIMKKVRESYENDVAAMHLQSNLIPGLNLNALGLFPGAASGGISPSVVSGPPPGAQAGYQSFGAQMESETVHLFIPALAVGAIIGKQGQHIKQLSRFAGASIKIAPADGIDAKQRMVIISGPPEAQFKAQGRIFGKLKEENFFGPKEEVKLEAHIKVPSFAAGRVIGKGGKTVNELQNLTSAEVVVPRDQTPDENDQVVVKITGHFYASQLAQRKIQEIISQVRRQQQPKPSAAGPPVARRK
